# Measured values from the supplement of paper PMC10032668.
# By UniProt entry, the sequences of proteins in these tests, tags left out.
# MORF4L1, Q9UBU8, UniProt Q9UBU8, whole entry: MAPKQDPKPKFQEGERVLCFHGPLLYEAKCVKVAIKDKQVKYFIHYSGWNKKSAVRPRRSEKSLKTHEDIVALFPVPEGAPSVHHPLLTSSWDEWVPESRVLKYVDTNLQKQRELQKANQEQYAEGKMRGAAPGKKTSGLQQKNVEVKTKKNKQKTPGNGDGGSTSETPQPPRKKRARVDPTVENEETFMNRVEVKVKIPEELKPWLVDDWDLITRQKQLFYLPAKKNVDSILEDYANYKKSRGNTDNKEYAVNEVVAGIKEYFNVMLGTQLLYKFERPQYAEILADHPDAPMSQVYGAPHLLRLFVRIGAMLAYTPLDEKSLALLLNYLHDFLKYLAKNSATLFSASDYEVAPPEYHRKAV
# MORF4L2, Q15014, UniProt Q15014, whole entry: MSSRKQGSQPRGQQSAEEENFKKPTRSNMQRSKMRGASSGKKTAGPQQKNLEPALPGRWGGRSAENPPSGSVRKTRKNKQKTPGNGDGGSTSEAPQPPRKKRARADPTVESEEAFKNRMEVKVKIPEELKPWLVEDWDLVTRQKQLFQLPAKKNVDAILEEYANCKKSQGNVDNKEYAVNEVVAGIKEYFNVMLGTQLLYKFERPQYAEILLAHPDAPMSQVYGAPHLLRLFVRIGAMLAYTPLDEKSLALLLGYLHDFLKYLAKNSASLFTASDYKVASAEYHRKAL
# MPG, P29372, UniProt P29372, whole entry: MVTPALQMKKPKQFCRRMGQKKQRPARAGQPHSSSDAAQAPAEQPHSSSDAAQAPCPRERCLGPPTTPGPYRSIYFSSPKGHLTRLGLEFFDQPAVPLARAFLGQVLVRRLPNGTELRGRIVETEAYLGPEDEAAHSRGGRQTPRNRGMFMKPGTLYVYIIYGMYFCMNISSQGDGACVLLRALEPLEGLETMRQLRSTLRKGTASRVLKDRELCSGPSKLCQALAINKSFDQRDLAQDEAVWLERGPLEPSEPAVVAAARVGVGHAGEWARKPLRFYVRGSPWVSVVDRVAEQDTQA
# PIN1, Q13526, UniProt Q13526, whole entry: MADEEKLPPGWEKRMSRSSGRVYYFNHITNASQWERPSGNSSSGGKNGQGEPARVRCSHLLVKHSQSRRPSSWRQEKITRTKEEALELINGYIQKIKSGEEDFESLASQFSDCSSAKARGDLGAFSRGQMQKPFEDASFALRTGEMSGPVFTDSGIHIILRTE
# PIN4, Q9Y237, UniProt Q9Y237, whole entry: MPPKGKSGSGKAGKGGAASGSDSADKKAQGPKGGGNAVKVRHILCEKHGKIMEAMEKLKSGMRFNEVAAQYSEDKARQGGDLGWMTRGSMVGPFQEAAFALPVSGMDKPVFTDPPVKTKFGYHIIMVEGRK
# PLK1, P53350, UniProt P53350, whole entry: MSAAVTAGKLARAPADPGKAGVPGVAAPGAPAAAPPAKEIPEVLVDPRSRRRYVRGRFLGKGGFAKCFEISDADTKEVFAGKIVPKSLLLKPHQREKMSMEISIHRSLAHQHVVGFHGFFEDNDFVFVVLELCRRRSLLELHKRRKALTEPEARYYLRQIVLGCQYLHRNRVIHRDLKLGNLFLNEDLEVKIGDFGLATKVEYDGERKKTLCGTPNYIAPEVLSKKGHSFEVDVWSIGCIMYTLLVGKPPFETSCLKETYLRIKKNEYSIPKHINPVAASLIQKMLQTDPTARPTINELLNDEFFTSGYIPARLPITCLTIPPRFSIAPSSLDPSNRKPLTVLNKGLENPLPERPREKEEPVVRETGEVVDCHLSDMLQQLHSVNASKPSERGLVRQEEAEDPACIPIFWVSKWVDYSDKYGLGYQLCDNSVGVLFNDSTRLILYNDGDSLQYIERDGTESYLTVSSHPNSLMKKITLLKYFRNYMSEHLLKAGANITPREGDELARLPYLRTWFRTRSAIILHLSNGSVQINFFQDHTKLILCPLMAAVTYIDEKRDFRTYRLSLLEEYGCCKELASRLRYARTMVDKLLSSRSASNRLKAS
# TMA7, Q9Y2S6, UniProt Q9Y2S6, whole entry: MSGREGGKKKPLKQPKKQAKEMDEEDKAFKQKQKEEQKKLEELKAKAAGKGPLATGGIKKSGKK
# ± gives the standard deviation of the averaged measurements. The list shows a part of the results. The list holds hits alone, and they repeat only in part.
# Tests used:
# Experiment in all cases: PRISMA enrichment of interactor (LFQ) in peptide spot vs all other peptide spots (log2 fold change); higher = stronger / more specific binding of the interactor to the peptide
# [1] = biological target: GSK3B, P49841
# Experimental: (§1)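 PRISMA: 221 full-length sORF-encoded peptides (3-15 aa), plus SOS1/GLUT1 control peptides, were spot-synthesized on cellulose membranes in triplicate. Membranes were incubated with HEK293T lysate, and bound proteins were identified by LC-MS/MS with LFQ. Enrichment is the log2 fold change versus all other peptide spots; only significant interactors are listed (cutoff c=6, x0=2.8).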
# [2] = biological target: GTPBP1, O00178
# Experimental: as §1
# [3] = biological target: H1FX, Q92522
# Experimental: as §1
# [4] = biological target: HMGB2, P26583
# Experimental: as §1
# [5] = biological target: HP1BP3, Q5SSJ5
# Experimental: as §1
# [6] = biological target: IBA57, Q5T440
# Experimental: as §1
# [7] = biological target: ISG20L2, Q9H9L3
# Experimental: as §1
# [8] = biological target: KIFC1, Q9BW19
# Experimental: as §1
# [9] = biological target: MAP4, P27816
# Experimental: as §1
# [10] = biological target: MAZ, P56270
# Experimental: as §1
# [11] = biological target: MCAT, Q8IVS2
# Experimental: as §1
# [12] = biological target: MORF4L1, Q9UBU8
# Experimental: as §1
# [13] = biological target: MORF4L2, Q15014
# Experimental: as §1
# [14] = biological target: MPG, P29372
# Experimental: as §1
# [15] = biological target: MRRF, Q96E11
# Experimental: as §1
# [16] = biological target: NIFK, Q9BYG3
# Experimental: as §1
# [17] = biological target: NME4, O00746
# Experimental: as §1
# [18] = biological target: NTHL1, P78549
# Experimental: as §1
# [19] = biological target: NUSAP1, Q9BXS6
# Experimental: as §1
# [20] = biological target: PIN1, Q13526
# Experimental: as §1
# [21] = biological target: PIN4, Q9Y237
# Experimental: as §1
# [22] = biological target: PLK1, P53350
# Experimental: as §1
# [23] = biological target: PPIL2, Q13356
# Experimental: as §1
# [24] = biological target: PSRC1, Q6PGN9
# Experimental: as §1
# [25] = biological target: RBIS, Q8N0T1
# Experimental: as §1
# [26] = biological target: RPS19BP1, Q86WX3
# Experimental: as §1
# [27] = biological target: RPUSD3, Q6P087
# Experimental: as §1
# [28] = biological target: TAX1BP3, O14907
# Experimental: as §1
# [29] = biological target: THYN1, Q9P016
# Experimental: as §1
# [30] = biological target: TMA16, Q96EY4
# Experimental: as §1
# [31] = biological target: TMA7, Q9Y2S6
# Experimental: as §1
# [32] = biological target: TOMM34, Q15785
# Experimental: as §1
# [33] = biological target: TRAF2, Q12933
# Experimental: as §1
# [34] = biological target: UTP11, Q9Y3A2
# Experimental: as §1
# [35] = biological target: UTP15, Q8TED0
# Experimental: as §1
# [36] = biological target: VRK1, Q99986
# Experimental: as §1
# [37] = biological target: ZNF146, Q15072
# Experimental: as §1
# [38] = biological target: ZNF22, P17026
# Experimental: as §1
# [39] = biological target: ZNF512, Q96ME7
# Experimental: as §1
# [40] = biological target: ZNF768, Q9H5H4
# Experimental: as §1
binder,measurement,setting,value
MQEVWGELGD [PDGFD],PRISMA enrichment of interactor (log2),[1],5.28
same,PRISMA enrichment of interactor (log2),[2],5.13
same,PRISMA enrichment of interactor (log2),[3],5.53
same,PRISMA enrichment of interactor (log2),[4],5.12
same,PRISMA enrichment of interactor (log2),[5],5.7
same,PRISMA enrichment of interactor (log2),[6],6.6
same,PRISMA enrichment of interactor (log2),[7],5.01
same,PRISMA enrichment of interactor (log2),[8],5.04
same,PRISMA enrichment of interactor (log2),[9],6.34
same,PRISMA enrichment of interactor (log2),[10],5.48 ± 1.2
same,PRISMA enrichment of interactor (log2),[11],4.38
same,PRISMA enrichment of interactor (log2),[12],5.61
same,PRISMA enrichment of interactor (log2),[13],7.97
same,PRISMA enrichment of interactor (log2),[14],6.87
same,PRISMA enrichment of interactor (log2),[15],4.59
same,PRISMA enrichment of interactor (log2),[16],6.38
same,PRISMA enrichment of interactor (log2),[17],5.33
same,PRISMA enrichment of interactor (log2),[18],5
same,PRISMA enrichment of interactor (log2),[19],4.73
same,PRISMA enrichment of interactor (log2),[20],4.81
same,PRISMA enrichment of interactor (log2),[21],7.87
same,PRISMA enrichment of interactor (log2),[22],7.34
same,PRISMA enrichment of interactor (log2),[23],5.5
same,PRISMA enrichment of interactor (log2),[24],5.76
same,PRISMA enrichment of interactor (log2),[25],4.55
same,PRISMA enrichment of interactor (log2),[26],5.49
same,PRISMA enrichment of interactor (log2),[27],6.61
same,PRISMA enrichment of interactor (log2),[28],4.09
same,PRISMA enrichment of interactor (log2),[29],5.8
same,PRISMA enrichment of interactor (log2),[30],5.07
same,PRISMA enrichment of interactor (log2),[31],5.09
same,PRISMA enrichment of interactor (log2),[32],7.09
same,PRISMA enrichment of interactor (log2),[33],12.2
same,PRISMA enrichment of interactor (log2),[34],5.02
same,PRISMA enrichment of interactor (log2),[35],4.6
same,PRISMA enrichment of interactor (log2),[36],4.1
same,PRISMA enrichment of interactor (log2),[37],4.12
same,PRISMA enrichment of interactor (log2),[38],5.14
same,PRISMA enrichment of interactor (log2),[39],4.96
same,PRISMA enrichment of interactor (log2),[40],6.08

# Exported tab-delimited: part of the list above.
binder	measurement	setting	value
MQEVWGELGD [PDGFD]	PRISMA enrichment of interactor (log2)	[7]	5.01
same	PRISMA enrichment of interactor (log2)	[8]	5.04
